Source: the supplement of paper PMC7858590
± gives the standard deviation of the averaged measurements. Over roughly 3,800 compounds, “cell shape (eccentricity) Z-score vs DMSO control” has its median near 1.1; the lowest 2% begin near -4.7. This is one part of the list.

The compounds below were run on human monocyte-derived macrophages (M0) (assay: cell shape (eccentricity) Z-score vs DMSO control; higher = more elongated, M2-like morphology). Conditions: 20 µM; 24 h; macrophage state: M0 (M-CSF).

Compound | cell shape (Z-score)
O=c1c(O)c(-c2ccc(O)cc2)oc2cc(O)cc(O)c12 | 1.35
COc1cc(O)cc(C)c1C(=O)OC1C(CO)OC(n2ccc(=O)[nH]c2=O)C1OC(C)=O (stereo not given) | 0.402 ± 3.5
C[C@@H](Oc1cc(-n2cnc3ccc(CN4CCN(C)CC4)cc32)sc1C(N)=O)c1ccccc1C(F)(F)F | 3.02
CC1CCC2(OC1)OC1CC3C4CC=C5C[C@@H](O)CC(O)[C@]5(C)C4CC[C@]3(C)C1C2C (stereo not given in full) | -0.562
O=c1c(O[C@@H]2OC[C@H](O)[C@H](O)[C@H]2O)c(-c2ccc(O)cc2)oc2cc(O)cc(O)c12 | 0.285 ± 2.6
CC1=Nc2ccc(Cl)cc2S(=O)(=O)N1 | 2.3
NC(=O)Nc1cc(-c2cccc(F)c2)sc1C(=O)N[C@H]1CCCNC1 | 11.9
COc1c(CC(=O)c2cc3c(cc2O)OC(C)(C)C(O)C3)ccc2c1C=CC(C)(C)O2 (stereo not given) | 0.402
O=C(Nc1ncc([N+](=O)[O-])s1)c1cccs1 | 0.677
COc1cc(C(=O)OCC2(O)COC(OCC3OC(Oc4c(OC)cc(CO)cc4OC)C(O)C(O)C3O)C2O)cc(OC)c1O (stereo not given) | 0.862
CC(C)N(CCCNC(=O)Nc1ccc(C(C)(C)C)cc1)CC1OC(n2ccc3c(N)ncnc32)[C@H](O)[C@@H]1O (stereo not given in full) | 3.91
CC(C)N1C(=O)S/C(=C/c2ccc(Sc3nc4ccccc4[nH]3)o2)C1=O | 1.64
C/C=C(\CO)C(=O)O[C@H]1[C@H](O)[C@@H](C(=O)OC)O[C@@H]2C[C@H]3OC(n4cnc5c(N)ncnc54)[C@H](OC)[C@H]3O[C@]21O (stereo not given in full) | 1.87 ± 0.22
COC(=O)C(NC(=O)c1cccc(NC=O)c1O)C(C)O (stereo not given) | 3.11
Oc1ccc(OCc2ccccc2)cc1 | 4.59
CC1(C)CC(=O)c2c(C(F)(F)F)nn(-c3ccc(C(N)=O)c(N[C@H]4CC[C@H](O)CC4)c3)c2C1 | 1.84
O=C(O)C1=CCCN(CCON=C(c2ccccc2)c2ccccc2)C1 | 1.06
CN(C)C(=O)n1nnnc1Cc1ccc(-c2ccccc2)cc1 | 12.8
O=C(Cc1ccccc1)Nc1nc2ccc(Cl)cc2c2nc(-c3ccco3)nn12 | 0.721
C[C@@H](NC(=O)/C(C#N)=C\c1ccc(O)c(O)c1)c1ccccc1 | 0.038
CC(N/C(=N/C#N)Nc1ccncc1)C(C)(C)C (stereo not given) | 2.86
CC1OC(OC2C(O)C(CO)OC(O[C@H]3CC[C@@]4(C)C(CC[C@]5(C)C4CC=C4C6CC(C)(C)CC[C@]6(C(=O)OC6OCC(OC7OCC(O)C(O)C7O)C(O)C6O)CC[C@]45C)C3(C)C)C2O)C(O)C(OC2OCC(O)(CO)C2O)C1O (stereo not given in full) | -0.504
CC(C)C1NC(=O)C(CC2(O)c3ccccc3N3C(=O)C(Cc4ccccc4)NC32)NC1=O (stereo not given) | 2.65
CCCCN1CCC(CCC(=O)c2cc(Cl)c(N)cc2OC)CC1 | 2.08
O=C(O)c1cc(N(Cc2ccccc2O)Cc2ccccc2O)ccc1O | 1.4
CC[C@@H]1CN2C(=O)N(C)c3nc(-c4ccccc4)[nH]c3C2=N1 | 1.33
CC1OC(OC2C(O)C(C)OC(OCC3OC(OC4C(C)OC(Oc5cc(O)c6c(=O)c(O)c(-c7ccc(O)c(O)c7)oc6c5)C(O)C4O)C(O)C(O)C3OC(=O)/C=C/c3ccc(O)cc3)C2O)C(O)C(O)C1O (stereo not given) | 1.33 ± 0.17
O=c1c(O[C@@H]2O[C@H](CO)[C@@H](O)[C@H](O)[C@H]2O)c(-c2ccc(O)cc2)oc2cc(O)cc(O)c12 | 1.96

Compound | cell shape (Z-score)
CCC(=O)NCC[C@@H]1CCc2ccc3c(c21)CCO3 | 0.718
C[C@H]1C(=O)N2c3ccccc3[C@@]3(O)C[C@@H]4C(=O)N[C@@](C)(c5nc6ccccc6c(=O)n54)N1[C@@H]23 | 2.16
CC1=CC(=O)CC(C)(C)[C@@]1(O)/C=C/C(C)O[C@@H]1O[C@H](CO)[C@@H](O)[C@H](O)[C@H]1O (stereo not given in full) | 0.399
COc1ccc(CCC(=O)c2ccc(OC)cc2O)cc1 | 2.54
CCCCCCCCC[C@@H](O)CC(=O)CCc1ccc(O)c(OC)c1 | 0.92
CC(C)=CCc1c(O)ccc2ccc(=O)oc12 | 0.548
CC/C=C\[C@H](O)[C@H](O)C1=C(C)C(=O)[C@]2(O1)C(=O)N[C@@](OC)(C(=O)c1ccccc1)C2O (stereo not given in full) | -1.34
CC(C)NC[C@@H](O)COc1cccc2ccccc12 | -1.95
COC(=O)C1=C(C)NC(C)=C(C(=O)OC)C1c1ccccc1[N+](=O)[O-] | 1.68
C[C@]1(CO)CN(c2cc(C(=O)Nc3ccc4c(c3)-c3c(c(C(N)=O)nn3-c3ccc(F)cc3)CC4)c(Cl)cn2)C[C@@]1(C)CO | 5.22
CC(NCCC(c1ccccc1)c1ccccc1)c1ccccc1 (stereo not given) | 5.83
O=C(O)c1cn(-c2ccc(F)cc2)c2cc(Cl)c(F)cc2c1=O | -3.88
c1ccc2c(Cc3c[nH]c4ccccc34)c[nH]c2c1 | 0.117
O=C1c2ccccc2C(=O)c2c1ccc(O)c2O | -0.12
O=C(/C=C/c1ccc(O)cc1)OC[C@H]1O[C@@H](Oc2cc(O)c3c(c2)OC(c2ccc(O)cc2)CC3=O)[C@H](O)[C@@H](OC(=O)/C=C/c2ccc(O)cc2)[C@@H]1O (stereo not given in full) | -0.756
COc1cc(OC)c2ccc(=O)oc2c1CC(O)C(C)(C)O (stereo not given) | 1.01 ± 1.3
CC(C)OC(=O)c1cn(Cc2c(F)cccc2F)c2sc(-c3ccc(NC(=O)C(C)C)cc3)c(CN(C)Cc3ccccc3)c2c1=O | 0.269
O=C(OCCN1CCOCC1)C1(c2ccccc2)CCCCC1 | 3.82
Cn1c(=O)c2nc(C3CCCC3)[nH]c2n(C)c1=O | 2.94
c1ccc(CC2=NCCN2)cc1 | 4.43
CC1c2ccccc2CN1CC1=NCCN1 (stereo not given) | 0.991
COc1cc([C@@H]2[C@H]3CO[C@@]4(O)C(=O)[C@@H]2C=C([C@H]2Oc5cc(O)cc(O)c5C(=O)[C@@H]2O)[C@@H]34)ccc1O | 1.58
COC(=O)c1ccccc1O[C@@H]1O[C@H](CO[C@@H]2OC[C@@H](O)[C@H](O)[C@H]2O)[C@@H](O)[C@H](O)[C@H]1O | -0.546
COC(=O)C1(Cc2ccc(O)cc2)OC(=O)C(=O)C1c1ccc(O)cc1 (stereo not given) | 1.29 ± 0.39
O=S(=O)(c1ccccc1)N(CC(F)(F)F)c1ccc(C(O)(C(F)(F)F)C(F)(F)F)cc1 | 4.2
COc1ccc(S(=O)(=O)N2CCN(S(=O)(=O)c3ccc4c(c3)OCCO4)CC2)cc1 | 1.21
O=C(OCc1cccc(O)c1O[C@@H]1O[C@H](CO)[C@@H](O)[C@H](O)[C@H]1O)C1(O)C(=O)C2C3C4C5C(C(=O)C(O)(C(=O)OCc6cccc(O)c6O[C@@H]6O[C@H](CO)[C@@H](O)[C@H](O)[C@H]6O)C2C53)C41 (stereo not given in full) | 5.61

Rewritten field by field: entries from further up.
O=C(Cc1ccccc1)Nc1nc2ccc(Cl)cc2c2nc(-c3ccco3)nn12
  cell shape (Z-score): 0.721
C[C@@H](NC(=O)/C(C#N)=C\c1ccc(O)c(O)c1)c1ccccc1
  cell shape (Z-score): 0.038
CC(N/C(=N/C#N)Nc1ccncc1)C(C)(C)C (stereo not given)
  cell shape (Z-score): 2.86
